{"source": "patent US12421556B2", "about": "“Materials and methods for stratifying and treating cancers” (The Institute of Cancer Research:Royal Cancer Hospital, priority 2017, dated 2025)", "origin": "cited, not measured here", "test_system": "pre-treated advanced STS", "settings": "pazopanib v. placebo; 95% CI 0.24-0.40; p<0.0001; cited from earlier work", "note": "At least one structure is not confirmed: it was looked up by name or label, or the drawing left a doubt."}
{"smiles": "Cc1ccc(Nc2nccc(N(C)c3ccc4c(C)n(C)nc4c3)n2)cc1S(N)(=O)=O", "note": "[pazopanib, Pazopanib]", "values": [{"measurement": "PFS HR", "result": 0.31}]}
